Experimental data from PubChem BioAssay AID328 (DTP/NCI, 2004).
The list does not hold the whole screen: it gathers tests that were run many times, whatever their T/C, doses with no T/C, and many T/C values between a quarter and a half above the control. Further doses and runs are listed elsewhere. T/C gives the treated animals as a percentage of the vehicle group. Some entries give survivors of the animals treated and no T/C: the source files T/C as zero there, which appears to mark a toxic dose or a test without result, not a measured value. Some survivor counts are full or nearly so, which does not show that the dose was tolerated: the source hardly ever lists a survival T/C far under the control, and the zero likely stands for such cases as well. Counts of survivors are from the toxicity check (mostly the fifth day) where no day follows; animals may have died later. Schedules are NCI's codes, taken here to give the interval after Q, in days (D) or hours (H), and the number of doses after X. Where survival is the endpoint, this PubChem deposit counts one and a half times the control or more as active, and values a quarter to a half above the control carry no call in these data; other NCI protocols may use other cut-offs. Some entries were tested several times; their values stand side by side, smallest first.

Tested on: BDF1 mice, P388 leukemia ip, median survival T/C
Assay: NCI In Vivo Anticancer Drug Screen. Data for tumor model P388 Leukemia (intraperitoneal) in B6D2F1 (BDF1) mice
Conditions: T/C endpoint: median survival time, higher T/C = longer survival
Procedure, shortened: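 Antitumour effect was judged in vivo: survival in drug-treated mice, normalised to that of vehicle-dosed controls, gives the reported T/C.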

[1] = dose: 200.0 mg/kg/injection, schedule: Q04DX003 (ip), vehicle: saline with Tween-80
[2] = dose: 400.0 mg/kg/injection, schedule: Q04DX003 (ip), vehicle: saline with Tween-80
[3] = dose: 50.0 mg/kg/injection, schedule: Q01DX009 (ip), vehicle: saline with Tween-80
[4] = dose: 400.0 mg/kg/injection, schedule: Q04DX003 (ip), vehicle: saline
[5] = dose: 50.0 mg/kg/injection, schedule: Q01DX009 (ip), vehicle: Klucel (hydroxypropylcellulose) (HPC)
[6] = dose: 100.0 mg/kg/injection, schedule: Q01DX009 (ip), vehicle: Klucel (hydroxypropylcellulose) (HPC)
[7] = dose: 12.5 mg/kg/injection, schedule: Q01DX009 (ip), vehicle: saline
[8] = dose: 25.0 mg/kg/injection, schedule: Q01DX009 (ip), vehicle: saline
[9] = dose: 200.0 mg/kg/injection, schedule: Q01DX009 (ip), vehicle: saline with Tween-80
[10] = dose: 200.0 mg/kg/injection, schedule: Q01DX009 (ip), vehicle: Klucel (hydroxypropylcellulose) (HPC)
[11] = dose: 100.0 mg/kg/injection, schedule: Q01DX009 (ip), vehicle: saline with Tween-80

COc1cc(NS(C)(=O)=O)ccc1Nc1c2ccc([N+](=O)[O-])cc2nc2c(C)c(C)ccc12
T/C (dose: 0.66 mg/kg/injection, schedule: Q04DX003 (ip), vehicle: saline with Tween-80): 137 % of control

Cc1ccc(C(=Nc2ccccc2)c2ccccc2C)cc1
survivor count (dose: 50.0 mg/kg/injection, schedule: Q04DX002 (ip), vehicle: saline with Tween-80): 5 of 5
survivor count (dose: 200.0 mg/kg/injection, schedule: Q04DX002 (ip), vehicle: saline with Tween-80): 6 of 6
survivor count (dose: 400.0 mg/kg/injection, schedule: Q04DX002 (ip), vehicle: saline with Tween-80): 6 of 6

CCC[CH2][Sn-]([CH2]CCC)([CH2]CCC)[O]c1cc(Cl)c(Cl)cc1Cl
survivor count (dose: 12.5 mg/kg/injection, schedule: Q01DX009 (ip), vehicle: other): 0 of 6
survivor count (dose: 25.0 mg/kg/injection, schedule: Q01DX009 (ip), vehicle: other): 0 of 6
survivor count (dose: 50.0 mg/kg/injection, schedule: Q01DX009 (ip), vehicle: other): 0 of 6
survivor count (dose: 100.0 mg/kg/injection, schedule: Q01DX009 (ip), vehicle: other): 0 of 6
survivor count (dose: 200.0 mg/kg/injection, schedule: Q01DX009 (ip), vehicle: other): 0 of 6
survivor count (dose: 400.0 mg/kg/injection, schedule: Q01DX009 (ip), vehicle: other): 0 of 6

O=[N+]([O-])/C=C/c1ccc([N+](=O)[O-])cc1
survivor count [1]: 1 of 6
survivor count [2]: 2 of 6

Brc1ccc(C[n+]2ccccc2)cc1
survivor count (dose: 50.0 mg/kg/injection, schedule: Q04DX003 (ip), vehicle: saline): 3 of 6
survivor count (dose: 100.0 mg/kg/injection, schedule: Q04DX003 (ip), vehicle: saline): 0 of 6

CC(=O)Oc1ccc(/C=N/NC(N)=S)nc1
T/C (dose: 0.56 mg/kg/injection, schedule: Q01DX009 (ip), vehicle: saline with Tween-80): 131 % of control
T/C (dose: 0.88 mg/kg/injection, schedule: Q01DX009 (ip), vehicle: saline with Tween-80): 138 % of control
T/C (dose: 1.33 mg/kg/injection, schedule: Q01DX009 (ip), vehicle: saline with Tween-80): 145 % of control
T/C (dose: 2.0 mg/kg/injection, schedule: Q01DX009 (ip), vehicle: saline with Tween-80): 141 % of control
survivor count (dose: 400.0 mg/kg/injection, schedule: Q01DX009 (ip), vehicle: saline with Tween-80): 6 of 6

ClCCCCCCCCCCc1ccccc1
T/C [2]: 135 and 145 % of control

CCN(CCNc1ccc(C)c2sc3cc(Cl)ccc3c(=O)c12)CC(C)O (stereo unspecified)
survivor count (dose: 400.0 mg/kg/injection, schedule: Q01DX009 (ip), vehicle: saline): 3 of 6

O=C(CC(O)(C(F)(F)F)C(F)(F)F)c1ccco1
T/C [3]: 133 % of control
survivor count [1]: 3 of 6

NC(=S)n1cccn1
survivor count (dose: 100.0 mg/kg/injection, schedule: Q01DX010 (ip), vehicle: water): 6 of 6

C/C(=C\c1ccc(C)cc1)[N+](=O)[O-]
survivor count (dose: 140.0 mg/kg/injection, schedule: Q01DX010 (ip), vehicle: saline): 6 of 6

O=C(O)c1nc2nc(Cl)c(Cl)nc2[nH]1
survivor count [4]: 3 of 6

CC(=O)Nc1cc2c(cc1[N+](=O)[O-])-c1ccc([N+](=O)[O-])cc1C2
survivor count [5]: 6 of 6
survivor count [6]: 6 of 6
survivor count (dose: 100.0 mg/kg/injection, schedule: Q04DX003 (ip), vehicle: Klucel (hydroxypropylcellulose) (HPC)): 6 of 6
survivor count (dose: 200.0 mg/kg/injection, schedule: Q04DX003 (ip), vehicle: Klucel (hydroxypropylcellulose) (HPC)): 6 of 6
survivor count (dose: 400.0 mg/kg/injection, schedule: Q04DX003 (ip), vehicle: Klucel (hydroxypropylcellulose) (HPC)): 6 of 6

Cc1cccc(/C=N\OCc2ccccc2)n1
T/C [1]: 136 % of control

O=C(O)c1cc(S(=O)(=O)F)cc(S(=O)(=O)F)c1
T/C (dose: 50.0 mg/kg/injection, schedule: Q01DX009 (ip), vehicle: alcohol): 127 % of control
T/C (dose: 75.0 mg/kg/injection, schedule: Q01DX009 (ip), vehicle: alcohol): 125 % of control
survivor count (dose: 100.0 mg/kg/injection, schedule: Q01DX009 (ip), vehicle: alcohol): 1 of 6

O=C(COc1ccc([N+](=O)[O-])cc1)Nc1cccnc1
survivor count [1]: 6 of 6

Nc1nc(N)c2cc(CNc3ccc(C(=O)NC(CC(=O)O)C(=O)O)cc3)ccc2n1 (stereo unspecified)
T/C (dose: 0.17 mg/kg/injection, schedule: Q01DX009 (ip), vehicle: saline): 125 % of control
T/C (dose: 0.25 mg/kg/injection, schedule: Q01DX009 (ip), vehicle: saline): 137 and 141 % of control
T/C (dose: 1.0 mg/kg/injection, schedule: Q01DX009 (ip), vehicle: saline): 141 % of control
survivor count (dose: 2.0 mg/kg/injection, schedule: Q01DX009 (ip), vehicle: saline): 6 of 6
survivor count (dose: 4.0 mg/kg/injection, schedule: Q04DX003 (ip), vehicle: saline sonified): 6 of 6
survivor count (dose: 8.0 mg/kg/injection, schedule: Q04DX003 (ip), vehicle: saline sonified): 4 of 6
survivor count [7]: 5 of 6
T/C (dose: 18.75 mg/kg/injection, schedule: Q04DX003 (ip), vehicle: saline sonified): 133 % of control
survivor count [8]: 4 of 6
survivor count (dose: 50.0 mg/kg/injection, schedule: Q04DX003 (ip), vehicle: saline sonified): 6 of 6

CCN(CC)C(=O)c1ccncc1
survivor count [4]: 2 of 6

CCOC(=O)C(C(=O)OCC)C1c2ccccc2C(=O)N(CCN(C)C)c2ccccc21 (stereo unspecified)
survivor count (dose: 200.0 mg/kg/injection, schedule: Q04DX003 (ip), vehicle: saline): 1 of 6

COCCn1c2nc(=O)n(-c3ccccc3)c(=O)c-2nc2c1CCCC2
survivor count [9]: 5 of 6

CC1=NNC(=O)C1CCO (stereo unspecified)
survivor count [6]: 3 of 3
T/C [10]: 126 % of control
T/C (dose: 400.0 mg/kg/injection, schedule: Q01DX009 (ip), vehicle: Klucel (hydroxypropylcellulose) (HPC)): 127 and 147 % of control

CCC1(O)CC2CN(CCc3c([nH]c4ccccc34)C(C(=O)OC)(c3cc4c(cc3OC)N(C)C3C(O)(C(N)=O)C(O)C5(CC)C=CCN6CCC43C65)C2)C1 (stereo unspecified) (tested in a mixture with another compound)
survivor count (dose: 3000.0 micrograms/kg/injection, schedule: Q04DX003 (ip), vehicle: saline): 8 of 8

C[C@]12C=CC(=O)C=C1CC[C@@H]1[C@@H]2[C@@H](O)C[C@@]2(C)[C@H]1CC[C@]2(O)C(=O)COC(=O)CCC(=O)O
T/C [11]: 131 % of control
T/C (dose: 100.0 mg/kg/injection, schedule: Q04DX003 (ip), vehicle: saline with Tween-80): 131 % of control
T/C [1]: 127 % of control

CSC(=S)NN=C1CCCC1
survivor count [3]: 4 of 6
survivor count [11]: 1 of 6
survivor count [9]: 0 of 6

CC[N+](CC)(CC)CCCCC[N+](CC)(CC)CC
survivor count (dose: 50.0 mg/kg/injection, schedule: Q04DX003 (ip), vehicle: water): 4 of 6
survivor count (dose: 100.0 mg/kg/injection, schedule: Q04DX003 (ip), vehicle: water): 2 of 6

COc1cc2c(cc1OC)C(c1ccc(N=Cc3ccc(N(C)C)cc3)cc1)N(C(=S)Nc1cc(Cl)ccc1Cl)CC2 (stereo unspecified)
survivor count [11]: 6 of 6

C1CN2CCN1CC2.[Cl][Ni+][Cl]
T/C [7]: 126 % of control
survivor count [7]: 6 of 6
survivor count (dose: 20.0 mg/kg/injection, schedule: Q01DX009 (ip), vehicle: saline): 6 of 6
survivor count [8]: 5 of 6

Cc1cn(C)c2nccnc12
survivor count (dose: 400.0 mg/kg/injection, schedule: Q01DX009 (ip), vehicle: water): 0 of 6
survivor count (dose: 400.0 mg/kg/injection, schedule: Q04DX003 (ip), vehicle: water): 0 of 6

C=C=[CH][Sn]([c]1ccccc1)([c]1ccccc1)[c]1ccccc1
survivor count [5]: 6 of 6
survivor count [6]: 4 of 6

C(=N\Nc1nc2ccccc2o1)/c1ccncc1
T/C [10]: 125 % of control
